Data from US20240361317A1, “PROBES BASED ON VOLATILE ORGANIC COMPOUNDS AND USES THEREOF FOR THE DIAGNOSIS AND PROGNOSIS OF PATHOLOGICAL CONDITIONS” (Centre National de la Recherche Scientifique, priority 2021, published 2024).

Assays:
[1] = system: KB tumors (tumor xenograft, tumor cells of the nasopharynx KB); assay: In vivo test of cocktail of 4 probes: ethanol isotopes exhaled after i.v. injection; parameters: species or system mouse; settings: doses 0.5 to 100 tested
Procedure: In the context of this study, the quantity of 4 expired isotopes by mouse models carrying a tumor xenograft (tumor cells of the nasopharynx KB; n=6) was compared to that exhaled by healthy animals (n=6) after i.v. injection of the cocktail.
The concentration of the 4 probes to be injected was determined beforehand according to a precise experimental plan having the objective of determining the amount of each probe inducing a minimum ethanol response in healthy animals (signal reaching a low or even zero basal level). In this context, the healthy animals received increasing doses of the 4 probes ([…] at 100 μg·kg^−1). The animals were then placed in a hermetic cage for 1 h. The amount of each ethanol isotope present in the breath of the animals was then measured for 30 min via an SPME sample, then a GC-TQMS analysis.
Once the i.v. doses are set, the cocktail was injected into healthy mice and diseased mice after 12 and then 15 days of implantation of the xenograft. The amount of the ethanol isotopes exhaled by the animals was measured 1 h after injection of the cocktail (FIG. 10). A negative control on two mice (healthy and diseased) was carried out. This control consisted of measuring the quantity of 4 isotopes of ethanol in the air surrounding the mice which had not received the cocktail. Ethanol-D5, ethanol-D4 and ethanol-^13CD5 were not detected. On the other hand, the specific transitions of ethanol-D2 gave an important signal, which implies the presence of an interfering compound in the environment of the mice. The amount of ethanol-D2 exhaled by the healthy mice was therefore subtracted from this background noise.

[2] = SPME-GC-TQMS detection ranges of ethanol isotopes in solution; settings: SPME 30 min at 30° C.; isotopes in mixture in solution

| Compound | optimal injection dose (minimum ethanol response in healthy animals) [1] | limit of detection of ethanol isotope [2] |
| --- | --- | --- |
| [2H]C([2H])(C)O[C@@H]1O[C@H](CO)[C@H](O)[C@H](O)[C@H]1O [D2-ethyl-β-D-galactopyranoside] | 0.001 mg/kg | – |
| [2H]C(O[C@@H]1O[C@@H](C)[C@@H](O)[C@@H](O)[C@@H]1O)C([2H])([2H])[2H] (stereo partly drawn) [D4-ethyl-1-α-L-fucopyranoside] | 0.1 mg/kg | – |
| [2H]C([2H])([2H])C([2H])([2H])O[C@@H]1O[C@H](C(=O)O)[C@@H](O)[C@H](O)[C@H]1O [D5-ethyl-β-D-glucuronide] | 0.01 mg/kg | – |
| [2H]C([2H])([2H])C([2H])([2H])O [ethanol-D5] | – | 1.10^9 M |
| [2H][13C]([2H])([2H])[13C]([2H])([2H])O [ethanol-^13C-D5] | – | 5.10^9 M |
| ^13C-D5-ethyl-N-acetylglucosamide [^13C-D5-ethyl-N-acetylglucosamine] | 0.01 mg/kg | – |
